Data from patent US20120065063A1, “3-Aryl-4-(2,6-dimethylbenzylidene)isoxazol-5(4H)-ones as Fungicides” (Bayer CropScience AG, priority 2010, published 2012).
Some entries share one result that the patent states for a list of compounds.

What was measured:
Leptosphaeria nodorum = test: In vitro test for determining the ED50 value with Leptosphaeria nodorum; format: cell-based; conditions: 50% inhibition of fungal growth, microtitre plates, 6 days, 20° C.
Procedure: In Vitro Test for Determining the ED50 Value with Leptosphaeria nodorum The cavities of 96-well microtitre plates are filled with 1.5 μl of a solution of the test compounds in DMSO. 150 μl of a glucose/peptone medium comprising the spores of the test fungus in a suitable concentration are introduced into each cavity. The test compounds in the microtitre cavities are used in concentrations of 20, 6, 2 and 0.6 ppm. The absorbance is determined photometrically at 620 nm. The microtitre plates are left at 20° C. and 85% relative atmospheric humidity for 6 days. Once the incubation time has passed, the growth of the test organisms is determined photometrically at a wavelength of 620 nm. The difference in absorbances before and after the incubation corresponds to the growth of the test fungi. Based on the difference of the absorbances at the various test concentrations and the difference of the absorbances of the untreated control, a dose/activity curve is calculated. The concentration required to inhibit fungal growth by 50% is determined and reported as ED50 value (=Effective Dose which causes 50% inhibition of growth) in ppm (=mg/l).

[1] = test system: Blumeria graminis f.sp. tritici; test: Blumeria test (wheat)/protective; format: in vivo; conditions: protective, 1000 ppm, evaluation 7 days after inoculation
Procedure: Blumeria Test (Wheat)/Protective [table] To produce an appropriate active compound formulation, I part by weight of active compound is mixed with the specified amounts of solvent and emulsifier, and the concentrate is diluted with water to the desired concentration. To test for protective activity, young plants are sprayed with the preparation of active compound at the stated application rate. After the spray coating has dried on, the plants are dusted with spores of Blumeria graminis f.sp. tritici.

Sphaerotheca fuliginea = test: Sphaerotheca test (cucumber)/protective; format: in vivo; conditions: protective, 500 ppm, evaluation 7 days after inoculation
Procedure: Sphaerotheca Test (Cucumber)/Protective [table] To produce an appropriate active compound formulation, 1 part by weight of active compound is mixed with the specified amounts of solvent and emulsifier, and the concentrate is diluted with water to the desired concentration. To test for protective activity, young cucumber plants are sprayed with the preparation of active compound at the stated application rate. 1 day after the treatment, the plants are inoculated with a spore suspension of Sphaerotheca fuliginea. The plants are then placed in a greenhouse at 70% relative atmospheric humidity and a temperature of 23° C.

Alternaria solani = test: Alternaria test (tomato)/protective; format: in vivo; conditions: protective, 500 ppm, evaluation 7 days after inoculation
Procedure: Alternaria Test (Tomato)/Protective [table] To produce an appropriate active compound formulation, 1 part by weight of active compound is mixed with the specified amounts of solvent and emulsifier, and the concentrate is diluted with water to the desired concentration. To test for protective activity, young tomato plants are sprayed with the preparation of active compound at the stated application rate. 1 day after the treatment, the plants are inoculated with a spore suspension of Alternaria solani and then remain at 100% relative humidity and 20° C. for 24 h. The plants then remain at 96% relative atmospheric humidity and a temperature of 20° C.

Venturia inaequalis = test: Venturia test (apple)/protective; format: in vivo; conditions: protective, 100 ppm, evaluation 10 days after inoculation
Procedure: Venturia Test (Apple)/Protective [table] To produce an appropriate active compound formulation, 1 part by weight of active compound is mixed with the specified amounts of solvent and emulsifier, and the concentrate is diluted with water to the desired concentration. To test for protective efficacy, young plants are sprayed with the active compound formulation at the stated application rate. After the spray coating has dried on, the plants are inoculated with an aqueous conidia suspension of the apple scab pathogen Venturia inaequalis and then remain in an incubation cabin at about 20° C. and 100% relative atmospheric humidity for 1 day. The plants are then placed in the greenhouse at about 21° C. and a relative atmospheric humidity of about 90%.

Plasmopara viticola = test: Plasmopara test (grapevine)/protective; format: in vivo; conditions: protective, 100 ppm, evaluation 6 days after inoculation
Procedure: Plasmopara Test (Grapevine)/Protective [table] To produce an appropriate active compound formulation, I part by weight of active compound is mixed with the specified amounts of solvent and emulsifier, and the concentrate is diluted with water to the desired concentration. To test for protective efficacy, young plants are sprayed with the active compound formulation at the stated application rate. After the spray coating has dried on, the plants are inoculated with an aqueous spore suspension of Plasmopara viticola and then remain in an incubation cabin at about 20° C. and 100% relative atmospheric humidity for 1 day. The plants are then placed in a greenhouse at about 21° C. and about 90% atmospheric humidity for 4 days. The plants are then moistened and placed in an incubation cabin for 1 day.

Compound | efficacy (Sphaerotheca fuliginea) | efficacy (Alternaria solani) | also measured
O=C1ON=C(c2ccccc2)C1=Cc1ccc(Cl)cc1 [Compound A-2, reference compound] |  |  | ED50 (Leptosphaeria nodorum): > 20 ppm
CC1=NOC(=O)C1=Cc1ccccc1 [Compound A-3, reference compound] |  |  | ED50 (Leptosphaeria nodorum): > 20 ppm
Cc1cc(C)c(C=C2C(=O)ON=C2c2ccccc2C(F)(F)F)c(C)c1 [Compound I-1] | ≥ 70% |  | efficacy [1]: ≥ 70%
Cc1cc(C)c(C=C2C(=O)ON=C2c2ccccc2OC(F)(F)F)c(C)c1 [Compound I-2] |  | ≥ 70% | ED50 (Leptosphaeria nodorum): less than 1 ppm
Cc1cc(C)c(C=C2C(=O)ON=C2c2ccccc2[N+](=O)[O-])c(C)c1 [Compound I-3] |  | ≥ 70% | 
Cc1cccc(C)c1C=C1C(=O)ON=C1c1ccccc1[N+](=O)[O-] [Compound I-4] |  | ≥ 70% | 
Cc1cc(C)c(C=C2C(=O)ON=C2c2ccccc2C)c(C)c1 [Compound I-5] | ≥ 70% | ≥ 70% | efficacy (Venturia inaequalis): ≥ 70%; efficacy [1]: ≥ 70%
Cc1cc(C)c(C=C2C(=O)ON=C2c2cccc(C)c2C)c(C)c1 [Compound I-8] | ≥ 70% | ≥ 70% | 
Cc1cccc(C2=NOC(=O)C2=Cc2c(C)cccc2C)c1C [Compound I-12] | ≥ 70% | ≥ 70% | 
Cc1cc(C)c(C=C2C(=O)ON=C2c2ccccc2)c(C)c1 [Compound I-13] |  |  | efficacy (Plasmopara viticola): ≥ 70%
COc1ccc(F)cc1C1=NOC(=O)C1=Cc1c(C)cccc1C [Compound I-21] |  | ≥ 70% | 
Cc1cc(C)c(C=C2C(=O)ON=C2c2ccccc2F)c(C)c1 [Compound I-23] |  |  | efficacy [1]: ≥ 70%
Cc1cc(C)c(C=C2C(=O)ON=C2c2c(F)cccc2F)c(C)c1 [Compound I-24] |  | ≥ 70% | 
Cc1cccc(C)c1C=C1C(=O)ON=C1c1ccccc1F [Compound I-25] | ≥ 70% | ≥ 70% | 
Cc1cccc(C)c1C=C1C(=O)ON=C1c1ccccc1Cl [Compound I-29] | ≥ 70% | ≥ 70% | 
Cc1cc(C)c(C=C2C(=O)ON=C2c2ccccc2SC(F)F)c(C)c1 [Compound I-32] | ≥ 70% | ≥ 70% | ED50 (Leptosphaeria nodorum): less than 1 ppm
Cc1cc(C)c(C=C2C(=O)ON=C2c2cc(F)ccc2F)c(C)c1 [Compound I-36] |  | ≥ 70% | 
Cc1cc(C)c(C=C2C(=O)ON=C2c2cc(F)ccc2Cl)c(C)c1 [Compound I-38] |  | ≥ 70% | 
Cc1cccc(C)c1C=C1C(=O)ON=C1c1cc(F)ccc1Cl [Compound I-39] | ≥ 70% | ≥ 70% | 
Cc1cccc(C)c1C=C1C(=O)ON=C1c1cc(Br)ccc1Cl [Compound I-42] |  | ≥ 70% | 
Cc1cc(C)c(C=C2C(=O)ON=C2c2cc(Br)ccc2Br)c(C)c1 [Compound I-43] |  |  | ED50 (Leptosphaeria nodorum): less than 1 ppm
Cc1cc(C)cc(C2=NOC(=O)C2=Cc2c(C)cc(C)cc2C)c1 [Compound I-48] |  | ≥ 70% | 
Cc1ccc(C2=NOC(=O)C2=Cc2c(C)cccc2C)cc1C [Compound I-50] |  | ≥ 70% | 
Cc1cc(C)cc(C2=NOC(=O)C2=Cc2c(C)cccc2C)c1 [Compound I-51] |  | ≥ 70% | 
COc1cc(OC)cc(C2=NOC(=O)C2=Cc2c(C)cc(C)cc2C)c1 [Compound I-53] |  | ≥ 70% | 
Cc1cc(C)c(C=C2C(=O)ON=C2c2cccc(Cl)c2)c(C)c1 [Compound I-56] |  |  | efficacy (Plasmopara viticola): ≥ 70%; efficacy [1]: ≥ 70%
Cc1cc(C)c(C=C2C(=O)ON=C2c2cc(Cl)cc(Cl)c2)c(C)c1 [Compound I-58] |  | ≥ 70% | 
Cc1cc(C)c(C=C2C(=O)ON=C2c2ccc(OC(C)C)cc2)c(C)c1 [Compound I-62] |  | ≥ 70% | 
Cc1cc(C)c(C=C2C(=O)ON=C2c2ccc([N+](=O)[O-])cc2)c(C)c1 [Compound I-65] |  | ≥ 70% | 
Cc1cc(C)c(/C=C2\C(=O)ON=C2c2ccc(F)cc2)c(C)c1 [Compound I-68, 4-(2,4,6-trimethylbenzylidene)-3-(4-fluorophenyl)-1,2-oxazol-5(4H)-one] | ≥ 70% |  | efficacy [1]: ≥ 70%
